{"source": "patent US20240138453A1", "about": "“FOOD HAVING IMPROVED FLAVOR, NUTRITION, AND COLOR AND PREPARATION METHOD THEREFOR” (KOREA ADVANCED INSTITUTE OF SCIENCE AND TECHNOLOGY, priority 2021, published 2024)", "key": {"[1]": {"assay": "Appearance of TSP- and tofu-based vegetable patties", "conditions": "for color of vegetable patty after cooking: cooked on low heat, about 17 mg hemin, about 16 mg ZnPPIX or 100 mg hemoglobin per 100 g dough, FIG. 63"}, "[2]": {"assay": "Tasting of cooked pressed-tofu-based vegetable patties"}}}
{"molecule": "C=CC1=C(C)c2cc3[n-]c(cc4[n-]c(cc5nc(cc1n2)C(C)=C5C=C)c(C)c4CCC(=O)O)c(CCC(=O)O)c3C.[Cl-].[Fe+3]", "note": "[heme, hemin]", "values": [{"measurement": "color of vegetable patty after cooking", "setting": "[1]", "value": "darker brown color similar to that of patties with actual beef and pork added"}, {"measurement": "flavor of vegetable patty on tasting", "setting": "[2]; 10 mg of heme per 50 g dough", "value": "the flavor of meat was detected without the flavor of tofu or bean curd soup"}, {"measurement": "flavor of vegetable patty on tasting", "setting": "[2]; 18.5 mg of heme per 50 g dough", "value": "a stronger beef flavor was detected"}]}
{"molecule": "hemoglobin", "values": [{"measurement": "color of patty dough before cooking", "setting": "[1]; about 17 mg hemin reagent or 100 mg hemoglobin per 100 g dough, compared to negative control, FIG. 62", "value": "more grayish brown"}, {"measurement": "color of vegetable patty after cooking", "setting": "[1]", "value": "light brown color"}]}
